Consider two molecules from publication PMC4183699, “A Relay Network of Extracellular Heme-Binding Proteins Drives C. albicans Iron Acquisition from Hemoglobin” (PLoS Pathogens, 2014).

The chains behind the UniProt entries cited, without tags or fusion partners. Where a name states a change or a piece, a line headed by the entry shows the natural chain unless it says otherwise.
UniProt P01966: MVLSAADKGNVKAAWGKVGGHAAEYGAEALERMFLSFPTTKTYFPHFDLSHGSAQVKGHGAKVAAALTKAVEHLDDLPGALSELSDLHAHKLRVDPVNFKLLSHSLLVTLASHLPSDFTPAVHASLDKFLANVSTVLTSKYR

The assay deals with bovine hemoglobin (bovine) (UniProt P01966). The assay is described as follows: pull-down; bovine hemoglobin covalently bound to CnBr-activated Sepharose-4B beads; 50 µl of 50 µM apo-protein mixed with 10 µl Hb-beads, 30 minutes at room temperature, supernatant separated from the beads; both purified.

These are yes or no findings as the source states them, for the method shown. Sequences can lack the tags named with a protein.

B1: Rbt5(23–219)-Myc-6×His (domain or fragment, UniProt Q59UT4 23-219)
chain: EGDNPYTIFPSVAKTASINGFADRIYDQLPECAKECVKQSTSSTPCPYWDTGCLCVMPQFAGAVGNCVAKNCKGKEVGSVESLATSICSSAGVWEPYWMIPSSVSDALAKAADAAAETTAESTTAESTAAETTKAEETSAKETTAAETSKAAESSAPAETSKAEETSKAAETTKAEESSVAQSSSSAADVASVSVEA
For B1, the binding result is listed as “no binding (tested: 50 µM)”.

B2: Pga7(18–195)-Myc-6×His (domain or fragment)
chain: NFGTYPKVPKTASINGFADPIYDLLPDCAKECVKFSTSNTPCPYWDTGCFCVMPQWAGLVGQCVAQKCKGEDVASARFLATSLCSVVGANTWMMPASISSMLSTAAGDAKEVTTIEGKTAKSWVTAPGSAAGSVVSETGSASETGSSESAQSTTTGSSSTGSSSTDSSSSSSSSPSSS
notes: Pga7, C. albicans CFEM protein, residues 18-195: from the predicted signal peptide cleavage site to the predicted GPI anchor addition site; PGA7 nucleotides +52 to +585 cloned EcoRI-XbaI into pPICZalphaA (KB2259); Used as apo-protein (heme removed) or as holo-protein (loaded with heme, not covalent); both are this one construct; The vector pPICZalphaA may leave a few residues at the N-terminus …
As to B2, the binding result is “no binding (tested: 50 µM)”.
